Results as given in patent publication US6686443 (dated 2004).
Where no end group is shown, it is not given here.

Test: peptide synthesis
Conditions: oxidative folding step, one disulfide bridge, sequence written open
Substance “Ala-Gly-Cys-Lys-Asn-Phe-Phe-Trp-Lys-Thr-Phe-Thr-Ser-Cys (reducedsomatostatin)” has an oxidative folding yield of 99%.

Test: peptide synthesis
Conditions: oxidative folding step, single step dithiol to disulfide
Substance “Ac-CPFAAC-NH2 (cysteine pairing not given here)” has an oxidative folding yield of 100%. “Ac-KPTCPFCRKT-NH2 (cysteine pairing not given here)” showed an oxidative folding yield of 100%. Work on “Ac-PTCPFCRK-NH2 (cysteine pairing not given here)” yielded an oxidative folding yield of 100%. For “Ac-TCPFCR-NH2 (cysteine pairing not given here)”, the oxidative folding yield was 100%. With “Ac-TDITCGYCHKLH-NH2 (cysteine pairing not given here)” the oxidative folding yield was 100%. In the case of “CFGSRIDRIGAQSGMGCGRF (cysteine pairing not given here)”, the oxidative folding yield was 100%. Work on “HSC(Me)2CH2CO-Tyr(Me)-Phe-Gln-Asn-Cys-Pro-Arg-Gly-NH2” yielded an oxidative folding yield of 97%. “RPCPQCFYPLM-NH2 (cysteine pairing not given here)” gave an oxidative folding yield of 99%.

Same assay, conditions: oxidative folding step, single step dithiol to disulfide, one disulfide bridge, sequence written open
Ac-Cys-Gly-Pro-Cys-NH2 gave an oxidative folding yield of 100%. In the case of Ac-Cys-Pro-Phe-Cys-NH2, the oxidative folding yield was 97%. “Cys-Tyr-Ile-Gln-Asn-Cys-Pro-Leu-Gly-NH2 (reducedoxytocin)” showed an oxidative folding yield of 98%. With “Cys-Tyr-Phe-Gln-Asn-Cys (reducedpressinoicacid)” the oxidative folding yield was 100%. With “Cys-Tyr-Phe-Gln-Asn-Cys-Pro-Arg-Gly-NH2 (reducedarginine-vasopressin)” the oxidative folding yield was 100%.
